PubChem BioAssay AID1671195 | Yale University | 2021

- Purpose: 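Knockdowns that increase or decrease uptake of fluorescent LDL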 (primary screen)
- Cells: human Huh7 hepatoma cells
- Reagent: siRNA pool against human genes, 18 nM
- Timing: about 2 to 2.5 days of knockdown, then 8 h LDL uptake
- Conditions: DiI-labelled LDL at 30 µg/ml for 8 h, in lipoprotein-deficient serum medium
- Detection: 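Fluorescent LDL signal imaged in cells, scaled to the plate median, robust z-score for each replicate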
- Direction: robust z-score: higher = more LDL uptake after knockdown
- Rule for the call: 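a gene counts as active if at least two replicate z-scores exceed ±2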
The whole screen tested about 22,000 reagents; this is an unselected part. Over the whole deposit, about 1,510 (6.9%) are marked active. 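Active includes knockdowns raising or lowering LDL uptake; positive z-scores mean more uptake, negative mean less.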 Unmarked entries are inactive.

Gene,"robust z-score, replicate 1","robust z-score, replicate 2","robust z-score, replicate 3"
CUL3,0.362,0.767,-0.267
MGA,1.71,-0.445,0.5
GNB5,2.11 (active),3.41,2.36
NUFIP2,-1.3,0.0982,0.665
SPINK6,0.2,0.21,0.575
NFATC1,-0.049,-0.0131,-0.0924
HOMEZ,0.883,1.8,2.54
OR4F15,-0.714,-0.955,-0.624
HAVCR1,0.0756,-0.03,0.805
PPIG,1.58,0.415,1.59
OSR2,-0.935,-0.078,-0.47
MTMR7,-0.571,-0.586,-0.486
GADD45A,0.468,-1.36,-0.151
EHD1,1.6 (active),2.86,2.18
CFHR3,-0.467,-0.0873,-1.01
LINC00316,-0.642,-0.215,0.0636
BAZ2A,0.0207,2.47,0.837
CERS5,-1.79,-1.62,-1.07
NFS1,-1.28,-0.637,-1.25
PCDHA2,-0.00937,0.0834,-0.458
LOC442119 (retired record),0.11,0.369,0.537
TUBA1B,-1.4,-1.81,-1.35
TP53TG3,-1.03,0.138,-0.477
MPG,-0.568,-0.606,-0.437
CD226,-0.681,-1.15,-0.169
GAP43,-0.821,-0.0527,-0.772
LOC728114,0.0282,-0.103,-0.326
EEF1A1,-0.823,-1.54,-1.22
